Measurements from article PMC10952895, “Assessment of the potential of novel and classical opioids to induce respiratory depression in mice” (British Journal of Pharmacology, 2023).

Test system: T1, μ-receptor (μ-receptor-RLuc8)
T1 construct: gene Oprm1; construct from Gillis, Gondin et al. 2020
Test: BRET, Nb33-Venus recruitment to μ-receptor-RLuc8 in HEK293 cells
Type: cell-based
Conditions: agonist; 10 min after addition, normalised to DAMGO

In the case of `CN1CC[C@]23c4c5ccc(O)c4O[C@H]2[C@@H](O)C=C[C@H]3[C@H]1C5` [morphine], the pEC50 is reported as 6.0 ± 0.07.
